{
  "source": "patent US20070065829",
  "target": "T1, Serum response factor (SRF) (Mus musculus) (UniProt Q9JM73)",
  "T1 sequence (looked up, limits assumed)": "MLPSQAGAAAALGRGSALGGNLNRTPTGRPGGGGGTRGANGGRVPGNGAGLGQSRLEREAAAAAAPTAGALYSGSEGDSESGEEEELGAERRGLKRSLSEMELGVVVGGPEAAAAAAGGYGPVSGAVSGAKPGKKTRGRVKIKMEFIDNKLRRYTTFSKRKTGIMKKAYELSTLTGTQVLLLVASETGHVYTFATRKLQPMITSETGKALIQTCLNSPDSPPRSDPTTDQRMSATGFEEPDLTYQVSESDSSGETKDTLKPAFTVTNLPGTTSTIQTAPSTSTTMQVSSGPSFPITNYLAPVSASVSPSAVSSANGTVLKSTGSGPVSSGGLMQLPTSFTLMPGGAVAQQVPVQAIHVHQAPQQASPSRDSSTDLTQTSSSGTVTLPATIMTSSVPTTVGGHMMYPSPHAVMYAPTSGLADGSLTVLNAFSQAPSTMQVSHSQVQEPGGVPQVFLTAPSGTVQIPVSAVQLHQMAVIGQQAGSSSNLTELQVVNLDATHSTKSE",
  "assay": "EMSA",
  "conditions": "One of the new complexes in differentiated Monc-1 nuclear extract contained SRF (supershift); 250x competitor; 25 mM Hepes pH 7.9, 40 mM KCl, 3 mM MgCl2, room temperature; protein in an extract; label: 32P",
  "note": "Results from cells or extracts need not show a direct contact. Protein sequences can lack the tags named with them.",
  "data": [
    {"sequence": "TCGAGACTTGGTGTCTTTCCCCAAATATGGAGCCTGTGTGGAGTG (double strand) [SM22alpha promoter CArG element probe]", "values": [
      {"measurement": "binding result", "result": "binds"}
    ]}
  ]
}
